Assay results reported in the supplement of paper PMC10849652.
The list shows a part of the results.

The chains behind the UniProt entries cited, without tags or fusion partners. Where a name states a change or a piece, a line headed by the entry shows the natural chain unless it says otherwise.
UniProt Q8N511: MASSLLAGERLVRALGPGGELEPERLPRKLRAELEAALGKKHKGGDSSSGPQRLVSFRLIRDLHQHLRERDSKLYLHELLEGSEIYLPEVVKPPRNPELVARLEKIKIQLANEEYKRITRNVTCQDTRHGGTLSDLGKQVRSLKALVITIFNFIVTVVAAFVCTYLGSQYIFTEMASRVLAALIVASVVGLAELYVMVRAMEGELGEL
UniProt Q9BVT8: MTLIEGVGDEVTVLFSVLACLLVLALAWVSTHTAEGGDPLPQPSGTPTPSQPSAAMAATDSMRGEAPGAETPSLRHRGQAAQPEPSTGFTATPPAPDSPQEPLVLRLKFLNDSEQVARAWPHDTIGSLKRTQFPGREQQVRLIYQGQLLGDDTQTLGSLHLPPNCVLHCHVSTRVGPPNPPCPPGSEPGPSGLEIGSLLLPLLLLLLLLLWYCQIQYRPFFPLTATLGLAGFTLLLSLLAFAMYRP
UniProt P42166: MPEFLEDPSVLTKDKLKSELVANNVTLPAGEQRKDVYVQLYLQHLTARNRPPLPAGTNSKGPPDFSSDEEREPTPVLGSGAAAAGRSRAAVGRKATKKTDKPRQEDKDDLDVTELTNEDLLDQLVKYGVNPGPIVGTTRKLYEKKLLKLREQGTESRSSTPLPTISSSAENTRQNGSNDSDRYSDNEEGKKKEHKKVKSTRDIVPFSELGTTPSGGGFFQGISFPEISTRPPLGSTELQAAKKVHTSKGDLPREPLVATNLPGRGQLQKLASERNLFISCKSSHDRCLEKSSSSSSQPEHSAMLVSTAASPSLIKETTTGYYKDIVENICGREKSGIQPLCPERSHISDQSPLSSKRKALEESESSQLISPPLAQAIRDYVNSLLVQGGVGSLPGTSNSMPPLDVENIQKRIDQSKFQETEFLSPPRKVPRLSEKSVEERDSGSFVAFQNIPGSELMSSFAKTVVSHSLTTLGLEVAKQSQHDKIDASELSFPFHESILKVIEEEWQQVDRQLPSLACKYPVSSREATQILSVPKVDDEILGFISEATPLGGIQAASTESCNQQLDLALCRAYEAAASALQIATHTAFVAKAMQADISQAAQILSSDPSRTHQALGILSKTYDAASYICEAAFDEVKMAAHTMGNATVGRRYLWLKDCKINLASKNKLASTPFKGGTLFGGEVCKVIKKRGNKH
UniProt Q13472: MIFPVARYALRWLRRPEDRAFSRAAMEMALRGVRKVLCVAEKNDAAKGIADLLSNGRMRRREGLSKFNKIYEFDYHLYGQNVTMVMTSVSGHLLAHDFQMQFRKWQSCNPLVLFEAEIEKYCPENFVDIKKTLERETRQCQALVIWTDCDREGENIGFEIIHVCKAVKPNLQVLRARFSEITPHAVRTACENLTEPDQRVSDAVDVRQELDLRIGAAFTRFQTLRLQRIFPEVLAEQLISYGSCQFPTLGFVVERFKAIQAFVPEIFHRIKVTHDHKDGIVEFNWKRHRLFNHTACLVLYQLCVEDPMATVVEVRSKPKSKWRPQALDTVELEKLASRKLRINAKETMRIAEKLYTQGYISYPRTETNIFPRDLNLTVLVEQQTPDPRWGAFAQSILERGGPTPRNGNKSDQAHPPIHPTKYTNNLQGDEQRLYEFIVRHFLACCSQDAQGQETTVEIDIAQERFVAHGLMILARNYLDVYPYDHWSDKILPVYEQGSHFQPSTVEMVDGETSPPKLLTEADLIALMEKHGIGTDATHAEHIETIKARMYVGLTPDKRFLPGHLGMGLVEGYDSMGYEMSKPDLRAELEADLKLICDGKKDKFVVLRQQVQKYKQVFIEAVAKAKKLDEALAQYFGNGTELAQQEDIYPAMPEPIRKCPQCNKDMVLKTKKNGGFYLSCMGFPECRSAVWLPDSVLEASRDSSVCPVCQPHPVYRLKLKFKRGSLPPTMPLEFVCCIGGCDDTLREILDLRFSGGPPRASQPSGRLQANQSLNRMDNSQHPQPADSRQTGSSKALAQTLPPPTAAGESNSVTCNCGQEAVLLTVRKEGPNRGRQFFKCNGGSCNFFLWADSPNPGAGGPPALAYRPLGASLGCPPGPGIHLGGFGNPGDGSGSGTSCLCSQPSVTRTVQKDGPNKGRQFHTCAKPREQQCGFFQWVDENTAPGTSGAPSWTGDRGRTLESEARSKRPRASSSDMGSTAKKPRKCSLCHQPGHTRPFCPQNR
UniProt Q8IY95: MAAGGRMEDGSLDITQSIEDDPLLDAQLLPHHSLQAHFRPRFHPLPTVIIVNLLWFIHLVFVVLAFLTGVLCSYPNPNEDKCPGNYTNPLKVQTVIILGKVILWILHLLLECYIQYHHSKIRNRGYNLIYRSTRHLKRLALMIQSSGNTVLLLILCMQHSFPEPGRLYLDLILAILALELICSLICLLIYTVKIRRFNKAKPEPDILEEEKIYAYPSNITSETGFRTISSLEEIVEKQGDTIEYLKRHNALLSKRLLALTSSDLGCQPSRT
UniProt Q6UW68: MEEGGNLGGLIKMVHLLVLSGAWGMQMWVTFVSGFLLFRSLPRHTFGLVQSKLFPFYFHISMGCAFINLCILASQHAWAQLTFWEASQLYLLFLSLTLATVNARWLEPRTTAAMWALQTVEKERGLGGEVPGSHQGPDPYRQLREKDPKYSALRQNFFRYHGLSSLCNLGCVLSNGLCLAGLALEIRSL
UniProt O75674: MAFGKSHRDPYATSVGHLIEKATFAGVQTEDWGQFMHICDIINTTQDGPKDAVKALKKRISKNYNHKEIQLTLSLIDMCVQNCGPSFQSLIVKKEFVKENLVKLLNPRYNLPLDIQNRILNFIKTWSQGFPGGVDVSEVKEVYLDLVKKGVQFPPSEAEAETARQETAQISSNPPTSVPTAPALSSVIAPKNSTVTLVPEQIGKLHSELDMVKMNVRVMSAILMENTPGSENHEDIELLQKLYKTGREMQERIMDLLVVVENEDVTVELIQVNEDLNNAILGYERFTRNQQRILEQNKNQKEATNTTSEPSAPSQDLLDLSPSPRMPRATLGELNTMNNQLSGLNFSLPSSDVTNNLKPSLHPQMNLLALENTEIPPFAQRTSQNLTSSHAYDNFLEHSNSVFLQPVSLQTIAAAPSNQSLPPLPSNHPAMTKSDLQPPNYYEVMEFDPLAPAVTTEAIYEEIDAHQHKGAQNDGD
UniProt O00220, whole entry, looked up: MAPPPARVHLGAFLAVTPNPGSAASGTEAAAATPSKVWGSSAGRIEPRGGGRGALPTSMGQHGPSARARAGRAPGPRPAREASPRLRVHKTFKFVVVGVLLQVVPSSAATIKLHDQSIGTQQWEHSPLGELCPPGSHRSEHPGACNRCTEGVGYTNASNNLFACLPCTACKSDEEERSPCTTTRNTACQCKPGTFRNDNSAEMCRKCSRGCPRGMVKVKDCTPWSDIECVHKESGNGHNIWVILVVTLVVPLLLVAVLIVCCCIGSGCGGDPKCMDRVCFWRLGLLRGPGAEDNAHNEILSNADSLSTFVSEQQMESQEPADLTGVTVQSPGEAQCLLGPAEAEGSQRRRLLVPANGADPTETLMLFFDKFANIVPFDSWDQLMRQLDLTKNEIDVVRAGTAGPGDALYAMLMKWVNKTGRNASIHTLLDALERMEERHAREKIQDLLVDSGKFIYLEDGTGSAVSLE

Tests used:
Assay in all cases: log2 fold change, soluble protein after heating vs DMSO (PISA); higher = thermal stabilisation; K562 lysate, 10 uM; active = over 0.2 and 3.5 SD of the protein, either way, in both replicates (recomputed)
erlotinib = compound: C#Cc1cccc(Nc2ncnc3cc(OCCOC)c(OCCOC)cc23)c1 [erlotinib]
In short: (§1)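 Soluble protein was defined as the supernatant remaining after 21,000xg for 90 min, following pooling of heated aliquots and adjustment to 0.5% NP-40 at 4°C. Before that, crude K562 extract at 1 mg/mL protein in PBS pH 7.4 with 1 mM MgCl2 was treated with 10 μM compound for 30 min and heated for 3 min across 48°C-58°C. Quantification used TMTpro 16plex LC-MS/MS with channel sums equalised, and values are log-two fold changes in thermal stability relative to solvent controls from duplicates.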

[1] = compound: C/C(=N\NC(=O)C1=CC(=CC=C1)S(=O)(=O)N2CCOCC2)/C3=C(C=CC(=C3)Cl)O
In short: as §1

[2] = compound: C1=CC(=CC=C1C2=NC3=C(N2)C=C(C=C3)C(=O)N)OC4=CC=C(C=C4)Cl
In short: as §1

[3] = compound: C1=CC2=C(C=CC(=C2)/C=C\3/C(=O)NC(=NCC4=CC=CS4)S3)N=C1
In short: as §1

[4] = compound: C1=CC2=NC=CN=C2C=C1/C=C/3\C(=O)NC(=O)S3
In short: as §1

[5] = compound: C1=CC=C(C=C1)C2=NC(=C(N2)C3=CC=NC=C3)C4=CC(=C(C=C4)Cl)O
In short: as §1

[6] = compound: C1=CC=C2C(=C1)C3=NNC4=CC=CC(=C43)C2=O
In short: as §1

[7] = compound: C1CCN(C1)C(=O)NC2=CC=CC(=C2)NC3=NC=C(C(=N3)NCCC4=CN=CN4)Br
In short: as §1

[8] = compound: C1CN(CCC1(CC2=CC=C(C=C2)Cl)N)C3=NC=NC4=C3C=CN4
In short: as §1

IRAK-1-4 Inhibitor I = compound: C1COCCN1CCN2C3=CC=CC=C3N=C2NC(=O)C4=CC(=CC=C4)[N+](=O)[O-] [IRAK-1-4 Inhibitor I]
In short: as §1

ibrutinib = compound: C=CC(=O)N1CCC[C@@H](n2nc(-c3ccc(Oc4ccccc4)cc3)c3c(N)ncnc32)C1 [ibrutinib]
In short: as §1

[9] = compound: CC(=O)c1cnc2ccc(-c3cc(Cl)c(O)c(Cl)c3)nc2c1N[C@H]1CC[C@H](CN(C)C)CC1
In short: as §1

ralimetinib = compound: CC(C)(C)Cn1c(N)nc2ccc(-c3[nH]c(C(C)(C)C)nc3-c3ccc(F)cc3)nc21 [ralimetinib]
In short: as §1

[10] = compound: CC(C)(O)CC(=O)NCCn1ccc2ncnc(Nc3ccc(Oc4cccc(C(F)(F)F)c4)c(Cl)c3)c21
In short: as §1

[11] = compound: CC(C)C1=C2N=C(C=C(N2N=C1)NCC3=CC=CC=C3)NCCCCCCN
In short: as §1

[12] = compound: CC1=C(C(CC(=O)N1)C2=CC=C(C=C2)C(F)(F)F)C(=O)NC3=C(C=C4C(=C3)C=NN4)F
In short: as §1

[13] = compound: CC1=C(C2=C(C=C1)C(=O)C3=CC=CC=C3N2CCCN)C
In short: as §1

[14] = compound: CC1=C(C=C(C=C1)NC(=O)C2=CC(=CC=C2)C(C)(C)C#N)NC3=CC4=C(C=C3)N=CN(C4=O)C
In short: as §1

[15] = compound: CC1=C(C=C(C=C1)NC(=O)C2=CC(=CC=C2)N(C)C)NC(=O)C3=CC=C(C=C3)O
In short: as §1

[16] = compound: CC1=CC=C(C=C1)SC2=C3C=C(SC3=CN=C2)C(=O)N
In short: as §1

Measured: log2 fold change

TMEM199 (UniProt Q8N511)
active: [13] -0.275
inactive: erlotinib 0.002 | [1] -0.03 | [2] -0.034 | [3] 0.032 | [4] 0.018 | [5] -0.013 | [6] -0.087 | [7] -0.065 | [8] 0.027 | IRAK-1-4 Inhibitor I -0.033 | ibrutinib 0.067 | [9] 0.001 | ralimetinib -0.001 | [10] -0.078 | [11] -0.003 | [12] 0.001 | [14] -0.043 | [15] -0.016 | [16] 0.009

TMUB1 (UniProt Q9BVT8)
inactive: erlotinib 0.027 | [1] 0.056 | [2] 0.004 | [3] -0.132 | [4] -0.197 | [5] -0.056 | [6] 0.022 | [7] -0.012 | [8] -0.034 | IRAK-1-4 Inhibitor I -0.096 | ibrutinib 0.032 | [9] 0.048 | ralimetinib 0.075 | [10] 0.01 | [11] 0.013 | [12] 0.033 | [13] 0.075 | [14] -0.102 | [15] 0.043 | [16] 0.105

TMPO (UniProt P42166)
inactive: erlotinib 0.026 | [1] -0.038 | [2] 0.012 | [3] -0.097 | [4] -0.03 | [5] -0.024 | [6] -0.026 | [7] -0.004 | [8] 0.005 | IRAK-1-4 Inhibitor I 0.008 | ibrutinib -0.025 | [9] -0.018 | ralimetinib -0.087 | [10] -0.004 | [11] 0.018 | [12] 0.011 | [13] 0 | [14] 0.024 | [15] 0.047 | [16] -0.026

TOP3A (UniProt Q13472)
inactive: erlotinib -0.026 | [1] 0.054 | [2] -0.014 | [3] -0.056 | [4] -0.014 | [5] -0.042 | [6] 0.002 | [7] -0.098 | [8] 0.206 | IRAK-1-4 Inhibitor I -0.002 | ibrutinib -0.009 | [9] -0.194 | ralimetinib -0.133 | [10] 0.039 | [11] -0.044 | [12] 0.083 | [13] -0.029 | [14] -0.019 | [15] 0.078 | [16] 0.011

TMEM192 (UniProt Q8IY95)
inactive: erlotinib -0.008 | [1] 0.004 | [2] 0.039 | [3] 0.012 | [4] -0.036 | [5] 0.009 | [6] 0.004 | [7] 0.082 | [8] -0.012 | IRAK-1-4 Inhibitor I 0.026 | ibrutinib 0.03 | [9] 0.037 | ralimetinib 0.004 | [10] -0.02 | [11] -0.052 | [12] 0.002 | [13] -0.031 | [14] 0.013 | [15] 0.012 | [16] -0.01

Two successive entries already listed:
TOP3A (UniProt Q13472)
inactive: erlotinib -0.026 | [1] 0.054 | [2] -0.014 | [3] -0.056 | [4] -0.014 | [5] -0.042 | [6] 0.002 | [7] -0.098 | [8] 0.206 | IRAK-1-4 Inhibitor I -0.002 | ibrutinib -0.009 | [9] -0.194 | ralimetinib -0.133 | [10] 0.039 | [11] -0.044 | [12] 0.083 | [13] -0.029 | [14] -0.019 | [15] 0.078 | [16] 0.011

TMEM192 (UniProt Q8IY95)
inactive: erlotinib -0.008 | [1] 0.004 | [2] 0.039 | [3] 0.012 | [4] -0.036 | [5] 0.009 | [6] 0.004 | [7] 0.082 | [8] -0.012 | IRAK-1-4 Inhibitor I 0.026 | ibrutinib 0.03 | [9] 0.037 | ralimetinib 0.004 | [10] -0.02 | [11] -0.052 | [12] 0.002 | [13] -0.031 | [14] 0.013 | [15] 0.012 | [16] -0.01

Remaining list, next part:

TMEM205 (UniProt Q6UW68)
inactive: erlotinib -0.066 | [1] -0.157 | [2] -0.003 | [3] 0.087 | [4] -0.105 | [5] -0.016 | [6] -0.069 | [7] -0.102 | [8] 0.021 | IRAK-1-4 Inhibitor I 0.125 | ibrutinib 0.002 | [9] -0.007 | ralimetinib 0.044 | [10] 0.017 | [11] 0.005 | [12] 0.074 | [13] -0.049 | [14] 0.044 | [15] -0.026 | [16] 0.005

TOM1L1 (UniProt O75674)
inactive: erlotinib -0.035 | [1] -0.064 | [2] 0.026 | [3] -0.006 | [4] 0.021 | [5] -0.003 | [6] 0.013 | [7] -0.037 | [8] -0.005 | IRAK-1-4 Inhibitor I 0.022 | ibrutinib -0.006 | [9] -0.015 | ralimetinib -0.003 | [10] -0.051 | [11] 0.025 | [12] 0.002 | [13] 0.052 | [14] 0.004 | [15] 0.004 | [16] -0.03

TNFRSF10A (UniProt O00220)
inactive: erlotinib -0.049 | [1] -0.103 | [2] 0.016 | [3] 0.007 | [4] -0.004 | [5] 0.02 | [6] -0.004 | [7] 0.037 | [8] -0.016 | IRAK-1-4 Inhibitor I -0.019 | ibrutinib -0.016 | [9] -0.015 | ralimetinib 0.031 | [10] -0.069 | [11] 0.048 | [12] 0.059 | [13] -0.006 | [14] 0 | [15] 0.028 | [16] 0.007
